PubChem BioAssay AID1259308 – NCATS – 2017

Screen: 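Candidate targets for better recombinant protein yield in mammalian cells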 (primary screen)
Cells: human HEK293 embryonic kidney cells stably expressing firefly luciferase (HEK-CMV-Luc2-Hygro)
Reagent: single siRNA against human genes, 0.8 pmol siRNA per well
Duration: 72 h
Read-out: 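Reporter luminescence and viable-cell signal on separate replicate plates, given as percent of non-targeting control and median/MAD z-scores, plus per-cell luciferase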
Scale: total luciferase, z-score and total luciferase, % of control: higher = more reporter protein produced; luciferase per cell, z-score: higher = more reporter output per viable cell; viable cells, % of control: higher = more viable cells
Rule for the call: 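Active when the median/MAD z-score for overall luciferase is greater than 3; a gene was taken forward for validation with new siRNAs if at least two of its three siRNAs passed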
Meaning of the calls: active = raised luciferase; inactive = no rise
The deposit covers about 59,000 reagents; shown is a random part of them. About 1,510 of them (2.6%) count as active. 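Calls use total luciferase alone and ignore viability, so some active siRNAs may act by altering cell number.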 Entries without a mark were called inactive. Reagents against one gene are numbered here.

gene knocked down	siRNA no.	total luciferase, z-score	total luciferase, % of control	luciferase per cell, z-score	viable cells, % of control
SNRPB (small nuclear ribonucleoprotein polypeptides B and B1)	1	5.88 (active)	199	5.4	53.6
SNRPB (small nuclear ribonucleoprotein polypeptides B and B1)	2	6.53 (active)	212	5.57	54.6
SNRPB (small nuclear ribonucleoprotein polypeptides B and B1)	3	3.84 (active)	158	3.72	66.4
GPX4 (glutathione peroxidase 4)	1	1.29	108	1.22	87.1
GPX4 (glutathione peroxidase 4)	2	1.67	115	1.56	85.2
GPX4 (glutathione peroxidase 4)	3	0.783	97.5	1.59	71.7
GBP6 (guanylate binding protein family member 6)	1	1.45	111	1.07	93.4
GBP6 (guanylate binding protein family member 6)	2	0.41	90	0.95	78.3
GBP6 (guanylate binding protein family member 6)	3	-0.0494	80.9	-0.275	97.2
GPR160 (G protein-coupled receptor 160)	1	-1.16	58.8	-1.48	96.9
GPR160 (G protein-coupled receptor 160)	2	-0.908	63.8	-0.312	77.4
GPR160 (G protein-coupled receptor 160)	3	0.62	94.2	0.137	102
TMEM98 (transmembrane protein 98)	1	-0.368	74.6	0.0586	82
TMEM98 (transmembrane protein 98)	2	-0.707	67.8	-0.893	95.9
TMEM98 (transmembrane protein 98)	3	0.133	84.5	0.11	91.8
OCSTAMP (osteoclast stimulatory transmembrane protein)	1	0.902	99.8	0.289	103
OCSTAMP (osteoclast stimulatory transmembrane protein)	2	0.675	95.3	0.937	83.2
OCSTAMP (osteoclast stimulatory transmembrane protein)	3	0.585	93.5	0.164	100
SYNE2 (spectrin repeat containing nuclear envelope protein 2)	1	1.25	107	0.391	108
SYNE2 (spectrin repeat containing nuclear envelope protein 2)	2	-0.321	75.5	-0.0316	85.1
SYNE2 (spectrin repeat containing nuclear envelope protein 2)	3	-1.5	52	-0.712	70.1
ACTA2 (actin alpha 2, smooth muscle)	1	-1.4	54.1	-0.427	67.7
ACTA2 (actin alpha 2, smooth muscle)	2	0.379	89.4	-0.497	114
ACTA2 (actin alpha 2, smooth muscle)	3	0.906	99.9	1.25	80.4

Just “total luciferase, % of control”, for 2 of the entries above:
ACTA2 (actin alpha 2, smooth muscle) #1: 54.1
ACTA2 (actin alpha 2, smooth muscle) #2: 89.4
